Literature values in patent US20050124634A1, “1,4-dihydropyridine compounds, pharmaceutical compositions, and methods for the treatment of cardiovascular disease” (MYOGEN, INC., priority 2003, published 2005).
At least one compound was matched to its structure with a doubt left.

Columns and labels:
[1] = test system: α-MyHC/β-MyHC ratios; conditions: spontaneously hypertensive rats, 12-week study; Yamazaki 1998; cited from earlier work
[2] = test system: α-MyHC/β-MyHC protein ratio; conditions: chronic hypertension and aging rats; Raizada 1993, 1999; cited from earlier work
[3] = test system: total MyHC; conditions: in vitro, neonatal rat ventricular myocytes; Samarel 1992, Simpson 1996; cited from earlier work

CCOC(=O)C1=C(COCCN)NC(C)=C(C(=O)OC)C1c1ccccc1Cl (stereo not drawn) [amlodipine]
effect on α-MyHC/β-MyHC ratios [1]: maintained their α-MyHC/β-MyHC ratios

COC(=O)C1=C(C)NC(C)=C(C(=O)OC)C1c1ccccc1[N+](=O)[O-] [nifedipine]
effect on α-MyHC/β-MyHC protein ratio [2]: protected against a drop in the α-MyHC/β-MyHC protein ratio
effect on total MyHC [3]: caused a lowering of total MyHC
